# From PubChem BioAssay AID2685 (National Center for Advancing Translational Sciences (NCATS), 2010)
# The list shows a part of the results. Shown are side measurements of this screen, not its main read-out; they come without a call. The list favours compounds with an active or inconclusive main result. The note in brackets gives the kind of curve behind each potency; many fits are weak.
# Test: qHTS Assay for Lipid Storage Modulators in Drosophila S3 Cells;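 on cell number change: cells counted by Cell Tracker Red CMTPX staining in the red channel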
# Conditions: BODIPY lipid droplet fluorescence, 18-24 h; for cell number change: measured here: cell count max response, cells fed with added oleic acid
# In short: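 Laser-scanning cytometry quantifies lipid droplet accumulation (500–530 nm total intensity; droplet/cell object ratio) in oleic acid-fed (400 uM added) Drosophila S3 cells treated with a concentration series. 20 uM Triacsin C defined 100% inhibition.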
# [1] = measured here: lipid fluorescence (Fed channel) AC50, cells fed with added oleic acid
# [2] = measured here: cell number channel AC50, cells fed with added oleic acid
SMILES,cell number change [%],AC50 [1],AC50 [2]
O=C(Nn1cnnc1)c1cc2c(s1)CCCC2,-18.6,"0.731 µM [falling, full curve]",
CC(C)c1c(O)c2c(n(-c3ccccc3)c1=O)CCCC2,5.87,"29.1 µM [rising, single point]",
COc1ccc(Oc2c(Cl)cnn(-c3ccc(C)cc3)c2=O)cc1,-69.6,"18.4 µM [falling, single point]","4.11 µM [falling, full curve]"
Brc1ccc(-c2nnc3n2CCCCC3)cc1,7.11,,
COc1cccc(-n2ccnc2SCC(=O)Nc2cc(C)on2)c1,3,,"0.00461 µM [rising, full curve, poor fit]"
COc1cc(C2CC(=O)N(CC(=O)NCc3ccco3)c3ccccc3S2)cc(OC)c1OC (configuration not stated),,,"0.731 µM [rising, single point]"
O=C(CCC1CCCCC1)NNC(=O)NC12CC3CC(CC(C3)C1)C2,14.7,,
O=C(Oc1ccccc1Cl)c1ccc2c(=O)n3c(nc2c1)CCC3,-14,"0.731 µM [falling, full curve, poor fit]","0.13 µM [falling, full curve]"
O=C1SCC(c2ccccc2)=NN1Cc1ccccc1,21.2,"23.1 µM [rising, single point]",
COc1ccc(OCCC(=O)OCC(=O)NC(=O)NC(C)C)cc1,15.4,"0.00461 µM [falling, full curve, poor fit]",
CCN1CCN(c2ccc(S(=O)(=O)N3CCCC3)cn2)CC1,-14.4,"4.61 µM [falling, single point]","0.00461 µM [falling, full curve, poor fit]"
CCCSc1nc(-n2ncc(C#N)c2N)c2c3c(sc2n1)CCC(C)C3 (configuration not stated),,"6.51 µM [rising, single point]","1.64 µM [rising, partial curve, poor fit]"
CC(C)(C)NC(=O)NC(=O)CSc1ncc(C(F)(F)F)cc1Cl,-4.65,,"0.411 µM [falling, full curve, poor fit]"
COc1ccc(C(=O)N(CCCO)Cc2cc3c(C)ccc(C)c3[nH]c2=O)cc1OC,100,,
CCOC(=O)Nc1nnc(Cc2ccc(Cl)c(Cl)c2)s1,81.8,"13 µM [rising, partial curve]","20.6 µM [rising, partial curve]"
CCCn1c(SC(C)C(=O)NC2CCCC2)n[nH]c1=O (configuration not stated),-0.549,"1.46 µM [falling, partial curve]",
COc1ccc2c(c1)CCN=C2Cc1ccc(OC)c(OC)c1,-52.5,"16.4 µM [falling, single point]","0.00461 µM [falling, full curve, poor fit]"
Cc1ccc(C)c(N2CCN(C(=O)CCNS(=O)(=O)c3ccc4c(c3)oc(=O)n4C)CC2)c1,,"4.11 µM [rising, partial curve]",
CC(C)N1C(=O)C2C(C(=O)NC3CCCCC3)C3C=CC2(O3)C1C(=O)NC1CCCCC1 (configuration not stated),-9.84,"0.146 µM [falling, full curve]","5.8 µM [falling, single point]"
COc1cc(CN2CCN(C(=O)CC(C)C)CC2)cc(OC)c1OC,-1.6,"3.26 µM [falling, single point]",
CCn1cc(C(=O)NCc2ccco2)c(=O)c2cc(S(=O)(=O)N3CCCCCC3)ccc21,7.66,,"0.82 µM [falling, full curve, poor fit]"

SMILES,cell number change [%],AC50 [1],AC50 [2]
O=C(O)c1cc(N/N=C/c2ccc3c(c2)OCCO3)ccc1Cl,-16.7,,
Nc1cc(Cl)ccc1N1C(=O)CCC1=O,-18.9,"0.651 µM [rising, partial curve, poor fit]",
O=C(/C=C/c1cccc([N+](=O)[O-])c1)NCCN1C(=O)S/C(=C\c2cccnc2)C1=O,-30.1,,
COc1ccc2nc(SCC(=O)NCC3CCCO3)c(C#N)cc2c1 (configuration not stated),19.8,,
O=C(Nc1nnc(-c2ccco2)o1)c1ccc(Cl)cc1,-10.6,"0.291 µM [falling, partial curve, poor fit]","0.0651 µM [falling, full curve, poor fit]"
CN1CCN(NC(=O)c2cn(-c3ccccc3)nc2-c2ccc(OC(F)F)cc2)CC1,-16.5,"0.92 µM [falling, full curve]",
O=C(N/N=C1/CCS(=O)(=O)c2ccc(F)cc21)c1ccccn1,-24.6,"6.51 µM [falling, partial curve, poor fit]","6.51 µM [falling, single point]"
O=C(CSc1nc2ccccc2[nH]1)N1c2ccccc2Sc2ccccc21,,"9.2 µM [falling, partial curve]",
Cc1ccc(NCC(=O)N/N=C\c2ccc[nH]2)cc1,1.87,"0.0058 µM [falling, full curve, poor fit]",
COc1ccc(C(CNC(=O)COc2ccccc2OC)N(C)C)cc1OC (configuration not stated),8.62,,
CC1CCN(Cc2nnnn2-c2cccc([N+](=O)[O-])c2)CC1,2.25,"13 µM [falling, single point]",
NC(=O)COC(=O)CC12CC3CC(CC(C3)C1)C2,-53.4,,"0.82 µM [falling, full curve, poor fit]"
CC(=O)N1CCSc2ccc(S(=O)(=O)NCCc3cccc(C)c3)cc21,2.55,,
Cc1cc(C)c2[nH]c(C(=O)N3CCC(n4nccc4NC(=O)C4CC4)CC3)c(C)c2c1,24.9,,
O=C(Nc1ccccc1C(=O)N1CCCC1)c1cccc(S(=O)(=O)N2CCCCCC2)c1,2.16,"8.2 µM [rising, partial curve]",
Cc1[nH][nH]c(=O)c1C(c1ccccc1[N+](=O)[O-])C(C#N)C#N (configuration not stated),-5.66,"2.59 µM [falling, partial curve]",
Cc1cc(=O)oc2cc(OC(C)C(=O)NC3(C#N)CCCCC3)ccc12 (configuration not stated),-38.7,"20.6 µM [falling, single point]","18.4 µM [falling, single point]"
COc1ccc(/C=N/Nc2ncnc3c2[nH]c2ccccc23)c(OC)c1OC,70,"3.26 µM [rising, full curve, poor fit]","25.9 µM [rising, single point]"
COc1ccc(CCCC(=O)N/N=C/c2cccc(OC)c2O)cc1C,-2.81,"0.103 µM [falling, full curve, poor fit]",
O=[N+]([O-])c1cccc(-c2nnc(CNC3CC3)o2)c1,,"0.58 µM [rising, single point]",
COc1cccc(NC(=O)CS(=O)(=O)Cc2nc(-c3ccc(C)cc3)oc2C)c1,14.1,,

# A stretch taken from the entries so far:
SMILES,cell number change [%],AC50 [1],AC50 [2]
Cc1cc(=O)oc2cc(OC(C)C(=O)NC3(C#N)CCCCC3)ccc12 (configuration not stated),-38.7,"20.6 µM [falling, single point]","18.4 µM [falling, single point]"
COc1ccc(/C=N/Nc2ncnc3c2[nH]c2ccccc23)c(OC)c1OC,70,"3.26 µM [rising, full curve, poor fit]","25.9 µM [rising, single point]"
COc1ccc(CCCC(=O)N/N=C/c2cccc(OC)c2O)cc1C,-2.81,"0.103 µM [falling, full curve, poor fit]",
O=[N+]([O-])c1cccc(-c2nnc(CNC3CC3)o2)c1,,"0.58 µM [rising, single point]",

# (cont.)

SMILES,cell number change [%],AC50 [1],AC50 [2]
c1ccc(CN(Cc2cccs2)C(c2cccs2)c2nnnn2C2CCCC2)cc1 (configuration not stated),0.0804,"6.51 µM [rising, single point]",
O=C(CCN1C(=O)c2cccc3cccc(c23)C1=O)NCC1CCCO1 (configuration not stated),6.27,"2.06 µM [rising, partial curve, poor fit]",
CCOc1ccc(CC2CCC(=O)NC2=O)cc1 (configuration not stated),-10.7,"4.11 µM [falling, partial curve]",
Cc1ccc(N(CC(=O)Nc2ccc3c(c2)OCCO3)S(C)(=O)=O)cc1,-4.88,"0.0291 µM [falling, full curve, poor fit]",
CNC(=S)NNC(=O)c1ccccc1Br,-11.4,,
CCn1nc(NC(=O)c2cccnc2)c2cc3cccc(C)c3nc21,-4.4,"0.517 µM [rising, full curve, poor fit]",
O=C(N/N=C/c1cccc2ccccc12)c1cccc(F)c1,,"15.8 µM [falling, single point]",
Cc1cc(=O)oc(C)c1C(=O)Nc1ccc(F)cc1,-20.1,"0.058 µM [falling, full curve]",
COc1cccc2c1C(=O)CC2NC(=O)C(F)(F)F (configuration not stated),-22.9,"25.9 µM [falling, partial curve]",
CCCCNC(=S)Nc1ccc(Cl)cc1,6.42,"36.6 µM [falling, partial curve, poor fit]",
N#CC1=C(N)S[C@@H](C(=O)c2ccc(F)cc2)[C@@H]1c1cccs1,-24.8,"29.1 µM [falling, single point]",
O=S(=O)(c1ccccc1)c1nc(-c2ccco2)oc1N1CCOCC1,26.3,"4.11 µM [rising, full curve]",
NC(=O)C1CC(=O)N(Cc2ccc3c(c2)OCO3)C(=Nc2ccccc2)S1 (configuration not stated),-16.5,"2.59 µM [rising, partial curve, poor fit]",
CC(C)c1ccc(NC(=O)c2ccc3snnc3c2)cc1,25.9,,"2.59 µM [rising, full curve, poor fit]"
O=C(/C=C/c1ccccc1Cl)Nc1ccc(-c2nnc3n2CCCCC3)cc1,-35.5,"5.8 µM [rising, single point]","32.6 µM [falling, single point]"
O=C(Nc1ccc2c(c1)C(=O)OC2)c1ccc(C(F)(F)F)cc1,9.01,"29.1 µM [rising, single point]",
O=C(NC1CCS(=O)(=O)C1)c1ccc(S(=O)(=O)N2CCCC2)cc1 (configuration not stated),-13.9,"0.58 µM [rising, single point]",
COc1cc(CN(C(=O)c2cccs2)C2CCS(=O)(=O)C2)cc(OC)c1OC (configuration not stated),12.8,"0.461 µM [falling, full curve]",
COc1cc(OC)c(C2=NOC(C(=O)Nc3c(C)nn(CC(=O)N4CCCC4)c3C)C2)cc1Cl (configuration not stated),-1.55,"1.16 µM [rising, single point]",
